# Experimental data from the supplement of paper PMC8728848.
# The list shows a part of the results.
# Experiments:
# Test in all cases: glycan array binding signal (z-score within array); higher = stronger binding
# Conditions in all cases: glycan notation: IUPAC condensed, linker removed
# [1] = target: GlcNAc(a1-6)Gal(b1-4)GlcNAc
# In short: (§1)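 Glycan array data were curated from 3228 arrays in the Consortium for Functional Glycomics database and kept only where the protein sequence was available. Glycan names were converted to IUPAC-condensed notation, and columns mapping to the same glycan were averaged. The binding signal is a within-array Z-score, averaged across arrays of the same protein sequence at different concentrations or buffers and across linkers. Negative Z-scores can be read as non-binding.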
# [2] = target: GlcNAc(b1-2)Gal(b1-3)GalNAc
# In short: as §1
# [3] = target: GlcNAc(b1-2)Man(a1-3)[GlcNAc(b1-2)Man(a1-6)]Man(b1-4)GlcNAc(b1-4)GlcNAc
# In short: as §1
# [4] = target: GlcNAc(b1-2)Man(a1-3)[GlcNAc(b1-2)Man(a1-6)]Man(b1-4)GlcNAc(b1-4)[Fuc(a1-6)]GlcNAc
# In short: as §1
# [5] = target: GlcNAc(b1-2)Man(a1-3)[GlcNAc(b1-4)][GlcNAc(b1-2)Man(a1-6)]Man(b1-4)GlcNAc(b1-4)GlcNAc
# In short: as §1
# [6] = target: GlcNAc(b1-2)Man(a1-3)[GlcNAc(b1-4)][GlcNAc(b1-2)Man(a1-6)]Man(b1-4)GlcNAc(b1-4)[Fuc(a1-6)]GlcNAc
# In short: as §1
# [7] = target: GlcNAc(b1-2)[GlcNAc(b1-4)]Man(a1-3)[GlcNAc(b1-2)Man(a1-6)]Man(b1-4)GlcNAc(b1-4)GlcNAc
# In short: as §1
# [8] = target: GlcNAc(b1-2)[GlcNAc(b1-4)]Man(a1-3)[GlcNAc(b1-4)][GlcNAc(b1-2)Man(a1-6)]Man(b1-4)GlcNAc(b1-4)GlcNAc
# In short: as §1
# [9] = target: GlcNAc(b1-2)[GlcNAc(b1-4)]Man(a1-3)[GlcNAc(b1-4)][GlcNAc(b1-2)[GlcNAc(b1-6)]Man(a1-6)]Man(b1-4)GlcNAc(b1-4)GlcNAc
# In short: as §1
# [10] = target: GlcNAc(b1-2)[GlcNAc(b1-4)]Man(a1-3)[GlcNAc(b1-4)][GlcNAc(b1-2)[GlcNAc(b1-6)]Man(a1-6)]Man(b1-4)GlcNAc(b1-4)[Fuc(a1-6)]GlcNAc
# In short: as §1
# [11] = target: GlcNAc(b1-2)[GlcNAc(b1-6)]Man(a1-6)[GlcNAc(b1-2)Man(a1-3)]Man(b1-4)GlcNAc(b1-4)GlcNAc
# In short: as §1
# [12] = target: GlcNAc(b1-2)[GlcNAc(b1-6)]Man(a1-6)[GlcNAc(b1-2)Man(a1-3)]Man(b1-4)GlcNAc(b1-4)[Fuc(a1-6)]GlcNAc
# In short: as §1
# [13] = target: GlcNAc(b1-2)[GlcNAc(b1-6)]Man(a1-6)[GlcNAc(b1-4)][GlcNAc(b1-2)Man(a1-3)]Man(b1-4)GlcNAc(b1-4)GlcNAc
# In short: as §1
# [14] = target: GlcNAc(b1-3)Fuc
# In short: as §1
# [15] = target: GlcNAc(b1-3)Gal
# In short: as §1
# [16] = target: GlcNAc(b1-3)Gal(b1-3)GalNAc
# In short: as §1
# [17] = target: GlcNAc(b1-3)Gal(b1-4)Glc
# In short: as §1
# [18] = target: GlcNAc(b1-3)Gal(b1-4)GlcNAc
# In short: as §1
binder,measurement,setting,value
SabA (Helicobacter pylori) (protein) MGSSHHHHHHSSGLVPRGSHMENLYFQGEDNGFFVSAGYQIGEAVQMVKNTGELKNLNEKYEQLSQYLNQVASLKQSIQNANNIELVNSSLNYLKSFTNNNYNSTTQSPIFNAVQAVITSVLGFWSLYAGNYFTFFVGKKVGDSGQPASVQGNPPFKTIIENCSGIENCAMDQTTYDKMKKLAEDLQAAQTNSATKGNNLCALSGCAATDSTSNPPNSTVSNALNLAQQLMDLIANTKTAMMWKNIVISGVSNTSGAITSTNYPTQYAVFNNIKAMIPILQQAVTLSQSNHTLSASLQAQATGSQTNPKFAKDIYTFAQNQKQVISYAQDIFNLFNSIPAEQYKYLEKAYLKIPNAGSTPTNPYRQVVNLNQEVQTIKNNVSYYGNRVDAALSVARDVYNLKSNQAEIVTAYNDAKTLSEEISKLPHNQVNTKDIVTLPYDKNAPAAGQSNYQINPEQQSNLNQALAAMSNNPFKKVGMISSQNNNGA,glycan array binding signal (z-score),[1],-0.582
same,glycan array binding signal (z-score),[2],0.113
same,glycan array binding signal (z-score),[3],-0.168
same,glycan array binding signal (z-score),[4],-0.091
same,glycan array binding signal (z-score),[5],-0.753
same,glycan array binding signal (z-score),[6],0.175
same,glycan array binding signal (z-score),[7],-0.287
same,glycan array binding signal (z-score),[8],1.31
same,glycan array binding signal (z-score),[9],-0.819
same,glycan array binding signal (z-score),[10],-0.545
same,glycan array binding signal (z-score),[11],-0.082
same,glycan array binding signal (z-score),[12],0.384
same,glycan array binding signal (z-score),[13],-0.832
same,glycan array binding signal (z-score),[14],-0.48
same,glycan array binding signal (z-score),[15],-0.461
same,glycan array binding signal (z-score),[16],-0.312
same,glycan array binding signal (z-score),[17],0.175
same,glycan array binding signal (z-score),[18],-0.33
